No constants are given. Whether binding was seen depends on the method and setting. In cells and extracts the contact can be indirect. Some results given as binding are weak or reduced against the parent protein; the word gives no strength.

Data on 1 molecule can be found in paper PMC10137428.

The target of the assay is VSV-tagged RAF-1 (UniProt P04049). Put plainly: co-IP; VSV-tagged RAF-1 expressed from pcDNA5 in HEK 293T cells; VSV beads used to catch RAF-1-binding proteins; SODD detected by western blot. On the technique in general: Immunoblotting shows a protein as a band on a membrane.

B1: Silencer of death domains (SODD; Bcl2-associated athanogene 4, BAG4) (protein, UniProt O95429 1-457)
chain: MSALRRSGYGPSDGPSYGRYYGPGGGDVPVHPPPPLYPLRPEPPQPPISWRVRGGGPAETTWLGEGGGGDGYYPSGGAWPEPGRAGGSHQEQPPYPSYNSNYWNSTARSRAPYPSTYPVRPELQGQSLNSYTNGAYGPTYPPGPGANTASYSGAYYAPGYTQTSYSTEVPSTYRSSGNSPTPVSRWIYPQQDCQTEAPPLRGQVPGYPPSQNPGMTLPHYPYGDGNRSVPQSGPTVRPQEDAWASPGAYGMGGRYPWPSSAPSAPPGNLYMTESTSPWPSSGSPQSPPSPPVQQPKDSSYPYSQSDQSMNRHNFPCSVHQYESSGTVNNDDSDLLDSQVQYSAEPQLYGNATSDHPNNQDQSSSLPEECVPSDESTPPSIKKIIHVLEKVQYLEQEVEEFVGKKTDKAYWLLEEMLTKELLELDSVETGGQDSVRQARKEAVCKIQAILEKLEKKGL
Consider B1, for which the binding entry is reported as “binds”.
